Results are given in words; binding and its absence hold for the method and conditions named. Binding seen in cells or lysates may run through a third protein. These calls come from enrichment with a bait or labelling near it, and not all partners need be listed.
Legend:
[1] = molecular target: Capicua (CIC), endogenous (human (endogenous in HEK293A and NHA)) (UniProt Q96RK0); experiment: affinity purification with mass spectrometry; nuclear fractions of NHA (NHA-CIC^WT) cells; CIC IP in triplicate with matched IgG controls; 'trigger peptides' used to enhance MS sensitivity for a subset of proteins
[2] = molecular target: Capicua (CIC), endogenous (human (endogenous in HEK293A and NHA)) (UniProt Q96RK0); experiment: affinity purification with mass spectrometry; nuclear fractions of HEK293A (HEK-CIC^WT) cells; IP with anti-endogenous CIC antibody (three replicates) or anti-Myc for stably expressed N-Myc-CIC-S (one experiment); LC-MS/MS; candidates identified in at least two of four replicates

Amino acid sequences for entries named in this document (tags omitted).
UniProt Q96RK0: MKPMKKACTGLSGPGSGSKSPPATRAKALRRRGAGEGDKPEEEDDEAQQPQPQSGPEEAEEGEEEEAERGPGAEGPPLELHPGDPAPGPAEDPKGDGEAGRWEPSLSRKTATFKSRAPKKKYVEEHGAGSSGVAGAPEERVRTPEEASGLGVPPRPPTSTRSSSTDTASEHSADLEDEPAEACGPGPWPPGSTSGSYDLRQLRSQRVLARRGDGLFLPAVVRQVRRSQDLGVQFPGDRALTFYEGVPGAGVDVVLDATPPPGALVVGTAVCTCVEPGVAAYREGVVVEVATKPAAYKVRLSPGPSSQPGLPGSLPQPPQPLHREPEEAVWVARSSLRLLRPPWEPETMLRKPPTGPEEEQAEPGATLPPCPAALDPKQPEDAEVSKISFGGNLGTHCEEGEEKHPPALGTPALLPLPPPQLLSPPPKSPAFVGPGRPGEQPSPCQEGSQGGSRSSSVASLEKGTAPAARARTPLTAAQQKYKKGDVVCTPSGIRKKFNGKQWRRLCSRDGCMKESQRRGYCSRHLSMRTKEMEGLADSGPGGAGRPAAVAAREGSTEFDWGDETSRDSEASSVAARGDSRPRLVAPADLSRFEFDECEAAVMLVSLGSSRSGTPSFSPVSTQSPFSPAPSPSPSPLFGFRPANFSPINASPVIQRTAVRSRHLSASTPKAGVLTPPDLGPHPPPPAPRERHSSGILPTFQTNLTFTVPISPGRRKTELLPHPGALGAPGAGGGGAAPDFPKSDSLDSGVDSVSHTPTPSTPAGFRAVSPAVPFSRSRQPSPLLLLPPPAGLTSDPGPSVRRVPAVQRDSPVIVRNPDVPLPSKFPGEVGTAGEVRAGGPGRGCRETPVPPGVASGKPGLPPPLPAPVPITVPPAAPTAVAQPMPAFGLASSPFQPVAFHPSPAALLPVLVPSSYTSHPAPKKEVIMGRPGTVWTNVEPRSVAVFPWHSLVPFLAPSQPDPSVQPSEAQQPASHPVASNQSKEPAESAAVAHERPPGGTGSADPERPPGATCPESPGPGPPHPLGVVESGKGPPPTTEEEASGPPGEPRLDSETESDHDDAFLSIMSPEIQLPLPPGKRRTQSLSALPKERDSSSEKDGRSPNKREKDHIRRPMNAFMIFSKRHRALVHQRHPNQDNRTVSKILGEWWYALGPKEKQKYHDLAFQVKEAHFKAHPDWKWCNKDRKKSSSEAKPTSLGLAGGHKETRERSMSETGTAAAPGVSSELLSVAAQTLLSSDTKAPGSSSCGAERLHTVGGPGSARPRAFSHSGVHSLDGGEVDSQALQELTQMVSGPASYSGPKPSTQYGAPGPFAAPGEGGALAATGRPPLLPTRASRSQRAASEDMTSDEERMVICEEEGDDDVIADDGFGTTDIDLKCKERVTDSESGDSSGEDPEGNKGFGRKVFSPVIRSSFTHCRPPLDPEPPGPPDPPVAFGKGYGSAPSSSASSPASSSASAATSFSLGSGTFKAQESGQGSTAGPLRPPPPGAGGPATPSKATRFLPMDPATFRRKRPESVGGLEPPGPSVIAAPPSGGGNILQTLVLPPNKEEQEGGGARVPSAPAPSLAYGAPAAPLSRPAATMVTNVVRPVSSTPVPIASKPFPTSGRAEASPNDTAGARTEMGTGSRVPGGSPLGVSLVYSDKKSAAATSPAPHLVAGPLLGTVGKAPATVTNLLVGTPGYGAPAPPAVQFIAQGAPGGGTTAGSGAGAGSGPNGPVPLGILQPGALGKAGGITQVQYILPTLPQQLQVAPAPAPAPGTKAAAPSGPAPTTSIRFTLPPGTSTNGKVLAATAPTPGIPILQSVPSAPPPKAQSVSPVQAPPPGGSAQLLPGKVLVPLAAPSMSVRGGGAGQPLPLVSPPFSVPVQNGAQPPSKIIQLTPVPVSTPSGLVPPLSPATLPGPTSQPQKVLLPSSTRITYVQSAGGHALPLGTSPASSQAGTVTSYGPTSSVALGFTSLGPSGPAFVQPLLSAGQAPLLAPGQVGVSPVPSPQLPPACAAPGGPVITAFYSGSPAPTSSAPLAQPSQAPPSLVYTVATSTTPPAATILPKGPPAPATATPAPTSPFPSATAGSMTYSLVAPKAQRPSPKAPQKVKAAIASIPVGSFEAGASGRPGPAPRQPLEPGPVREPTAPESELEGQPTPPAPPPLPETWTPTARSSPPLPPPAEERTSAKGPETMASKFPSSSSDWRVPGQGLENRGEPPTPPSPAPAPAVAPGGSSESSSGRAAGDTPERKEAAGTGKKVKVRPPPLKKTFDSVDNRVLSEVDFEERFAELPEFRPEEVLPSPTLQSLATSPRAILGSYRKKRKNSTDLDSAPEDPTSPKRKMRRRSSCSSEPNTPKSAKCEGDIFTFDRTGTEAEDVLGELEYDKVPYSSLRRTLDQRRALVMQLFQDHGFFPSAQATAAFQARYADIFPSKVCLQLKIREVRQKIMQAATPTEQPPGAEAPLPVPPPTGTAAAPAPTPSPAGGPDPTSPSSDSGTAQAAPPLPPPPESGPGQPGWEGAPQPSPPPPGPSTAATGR
UniProt O00429: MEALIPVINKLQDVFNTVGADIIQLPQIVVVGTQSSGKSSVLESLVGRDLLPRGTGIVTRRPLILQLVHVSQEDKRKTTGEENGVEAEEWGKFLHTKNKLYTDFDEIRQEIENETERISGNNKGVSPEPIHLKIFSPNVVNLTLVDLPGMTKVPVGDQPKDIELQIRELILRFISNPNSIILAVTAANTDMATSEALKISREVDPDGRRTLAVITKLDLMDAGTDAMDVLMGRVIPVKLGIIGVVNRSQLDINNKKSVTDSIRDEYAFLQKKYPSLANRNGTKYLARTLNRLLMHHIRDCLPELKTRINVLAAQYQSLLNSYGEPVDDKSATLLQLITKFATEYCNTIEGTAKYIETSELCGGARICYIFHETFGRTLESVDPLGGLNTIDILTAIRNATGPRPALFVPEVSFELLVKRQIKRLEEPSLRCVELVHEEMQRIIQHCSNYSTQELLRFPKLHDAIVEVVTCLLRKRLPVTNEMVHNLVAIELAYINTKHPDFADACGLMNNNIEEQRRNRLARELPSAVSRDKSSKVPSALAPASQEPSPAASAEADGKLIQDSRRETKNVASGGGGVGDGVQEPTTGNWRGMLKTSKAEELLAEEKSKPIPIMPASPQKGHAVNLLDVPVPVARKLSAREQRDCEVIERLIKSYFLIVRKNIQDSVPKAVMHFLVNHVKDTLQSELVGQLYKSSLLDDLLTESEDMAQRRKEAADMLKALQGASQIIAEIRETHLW
UniProt P51608: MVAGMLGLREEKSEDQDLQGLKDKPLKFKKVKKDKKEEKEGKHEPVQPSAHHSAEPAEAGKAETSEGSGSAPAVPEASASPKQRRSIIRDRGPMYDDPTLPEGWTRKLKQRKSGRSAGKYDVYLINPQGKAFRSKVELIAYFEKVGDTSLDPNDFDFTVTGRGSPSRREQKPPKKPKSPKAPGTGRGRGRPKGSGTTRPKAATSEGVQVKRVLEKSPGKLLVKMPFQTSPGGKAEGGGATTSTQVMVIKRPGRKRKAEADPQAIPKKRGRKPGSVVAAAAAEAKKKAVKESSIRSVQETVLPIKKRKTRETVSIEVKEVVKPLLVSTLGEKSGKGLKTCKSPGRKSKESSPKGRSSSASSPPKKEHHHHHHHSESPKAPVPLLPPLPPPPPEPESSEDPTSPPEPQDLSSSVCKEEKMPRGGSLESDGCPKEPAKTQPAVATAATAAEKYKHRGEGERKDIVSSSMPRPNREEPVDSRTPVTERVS
UniProt P06748: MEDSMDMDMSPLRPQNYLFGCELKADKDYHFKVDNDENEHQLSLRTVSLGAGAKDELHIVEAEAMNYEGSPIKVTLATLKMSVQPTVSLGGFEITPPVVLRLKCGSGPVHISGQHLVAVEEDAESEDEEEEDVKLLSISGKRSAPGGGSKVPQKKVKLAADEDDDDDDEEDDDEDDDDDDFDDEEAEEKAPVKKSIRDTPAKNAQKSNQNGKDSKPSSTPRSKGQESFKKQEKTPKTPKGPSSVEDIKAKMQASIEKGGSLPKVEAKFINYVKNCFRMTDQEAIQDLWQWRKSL
UniProt P11387: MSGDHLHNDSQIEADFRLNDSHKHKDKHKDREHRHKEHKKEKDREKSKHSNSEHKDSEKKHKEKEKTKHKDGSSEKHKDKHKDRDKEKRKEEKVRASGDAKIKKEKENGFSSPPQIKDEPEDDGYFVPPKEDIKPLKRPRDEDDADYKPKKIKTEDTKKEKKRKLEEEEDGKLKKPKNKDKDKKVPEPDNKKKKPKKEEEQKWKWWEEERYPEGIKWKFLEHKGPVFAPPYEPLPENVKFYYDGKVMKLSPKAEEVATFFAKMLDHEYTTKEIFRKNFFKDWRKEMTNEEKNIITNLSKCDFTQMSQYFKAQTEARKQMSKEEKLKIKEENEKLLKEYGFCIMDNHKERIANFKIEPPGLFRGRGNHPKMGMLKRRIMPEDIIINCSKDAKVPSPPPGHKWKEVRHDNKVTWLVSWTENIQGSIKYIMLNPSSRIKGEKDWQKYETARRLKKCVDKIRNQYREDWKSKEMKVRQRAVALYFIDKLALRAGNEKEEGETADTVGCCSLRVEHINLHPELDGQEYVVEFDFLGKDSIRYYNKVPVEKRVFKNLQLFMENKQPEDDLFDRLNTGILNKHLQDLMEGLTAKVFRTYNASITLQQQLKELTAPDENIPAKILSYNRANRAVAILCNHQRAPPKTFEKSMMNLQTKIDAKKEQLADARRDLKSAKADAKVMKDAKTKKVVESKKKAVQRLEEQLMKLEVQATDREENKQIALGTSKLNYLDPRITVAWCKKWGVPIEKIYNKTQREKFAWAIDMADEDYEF
UniProt Q13263: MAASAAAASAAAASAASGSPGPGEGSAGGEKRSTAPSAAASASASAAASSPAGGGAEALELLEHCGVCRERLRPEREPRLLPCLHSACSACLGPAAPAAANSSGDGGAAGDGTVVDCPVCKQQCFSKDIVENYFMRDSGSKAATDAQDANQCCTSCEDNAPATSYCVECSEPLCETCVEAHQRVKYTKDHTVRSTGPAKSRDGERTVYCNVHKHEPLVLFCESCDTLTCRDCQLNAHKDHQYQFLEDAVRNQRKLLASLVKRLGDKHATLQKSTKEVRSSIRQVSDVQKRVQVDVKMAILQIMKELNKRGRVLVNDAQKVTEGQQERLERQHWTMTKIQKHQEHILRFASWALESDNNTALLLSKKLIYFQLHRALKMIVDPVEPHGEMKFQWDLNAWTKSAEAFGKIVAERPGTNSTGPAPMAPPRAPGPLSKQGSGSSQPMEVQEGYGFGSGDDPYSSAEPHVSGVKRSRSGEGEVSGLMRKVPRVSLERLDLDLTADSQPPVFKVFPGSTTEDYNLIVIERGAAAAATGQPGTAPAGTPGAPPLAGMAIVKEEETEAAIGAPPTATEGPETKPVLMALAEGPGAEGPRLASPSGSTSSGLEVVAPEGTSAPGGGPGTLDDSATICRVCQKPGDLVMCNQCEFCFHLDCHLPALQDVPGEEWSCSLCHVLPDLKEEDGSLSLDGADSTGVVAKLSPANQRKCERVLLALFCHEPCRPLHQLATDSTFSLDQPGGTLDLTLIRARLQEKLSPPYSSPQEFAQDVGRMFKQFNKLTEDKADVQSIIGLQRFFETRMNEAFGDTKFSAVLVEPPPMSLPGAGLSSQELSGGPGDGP
UniProt P12956: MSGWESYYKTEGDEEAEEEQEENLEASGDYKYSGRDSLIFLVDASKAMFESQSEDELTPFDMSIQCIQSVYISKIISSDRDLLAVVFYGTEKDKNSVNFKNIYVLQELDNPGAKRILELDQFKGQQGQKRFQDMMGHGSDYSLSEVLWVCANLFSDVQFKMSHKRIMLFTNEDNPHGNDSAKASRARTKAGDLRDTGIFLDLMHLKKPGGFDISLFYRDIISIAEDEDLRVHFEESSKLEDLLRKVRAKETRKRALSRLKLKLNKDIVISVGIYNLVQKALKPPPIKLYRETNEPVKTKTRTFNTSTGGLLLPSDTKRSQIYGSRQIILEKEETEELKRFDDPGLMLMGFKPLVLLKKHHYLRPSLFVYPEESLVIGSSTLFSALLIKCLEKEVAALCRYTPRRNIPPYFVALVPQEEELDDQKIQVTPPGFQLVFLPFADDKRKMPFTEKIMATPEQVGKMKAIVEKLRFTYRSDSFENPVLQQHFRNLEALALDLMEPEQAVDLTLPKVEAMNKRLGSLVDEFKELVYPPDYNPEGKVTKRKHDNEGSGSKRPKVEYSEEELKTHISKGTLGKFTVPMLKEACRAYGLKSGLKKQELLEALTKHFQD

binding [1] | binding [2] | Molecule
binds | binds | CDC5L (from UniProt Q99459 1-802)
binds | binds | DDX3X (from UniProt O00571 1-662)
binds | binds | DDX5 (from UniProt P17844 1-614)
binds | binds | DDX21 (from UniProt Q9NR30 1-783)
binds | binds | DNM1L (from UniProt O00429 1-736)
binds | binds | G3BP1 (from UniProt Q13283 1-466)
binds | binds | HNRNPK (from UniProt P61978 1-463)
binds | binds | HP1BP3 (from UniProt Q5SSJ5 1-553)
binds | binds | MECP2 (from UniProt P51608 1-486)
binds | binds | MKI67 (from UniProt P46013 1-3256)
binds | binds | NPM1 (from UniProt P06748 1-294)
binds | binds | PRKDC (from UniProt P78527 1-4128)
binds | binds | RUVBL1 (from UniProt Q9Y265 1-456)
binds | binds | SMARCA2 (from UniProt P51531 1-1590)
binds | binds | SMARCA4 (from UniProt P51532 1-1647)
binds | binds | SMARCA5 (from UniProt O60264 1-1052)

binding [1] | binding [2] | Molecule
binds | binds | SMARCC1 (from UniProt Q92922 1-1105)
binds | binds | SMARCC2 (from UniProt Q8TAQ2 1-1214)
 | binds | SVIL (from UniProt O95425 1-2214)
binds | binds | TOP1 (from UniProt P11387 1-765)
binds | binds | TRIM28 (from UniProt Q13263 1-835)
binds | binds | TTN (from UniProt Q8WZ42 1-34350)
binds | binds | XRCC5 (from UniProt P13010 1-732)
binds | binds | XRCC6 (from UniProt P12956 1-609)
binds | binds | YLPM1 (from UniProt P49750 1-2146)
binds | binds | GLYR1 (protein, UniProt Q49A26 1-553) MAAVSLRLGDLVWGKLGRYPPWPGKIVNPPKDLKKPRGKKCFFVKFFGTEDHAWIKVEQLKPYHAHKEEMIKINKGKRFQQAVDAVEEFLRRAKGKDQTSSHNSSDDKNRRNSSEERSRPNSGDEKRKLSLSEGKVKKNMGEGKKRVSSGSSERGSKSPLKRAQEQSPRKRGRPPKDEKDLTIPESSTVKGMMAGPMAAFKWQPTASEPVKDADPHFHHFLLSQTEKPAVCYQAITKKLKICEEETGSTSIQAADSTAVNGSITPTDKKIGFLGLGLMGSGIVSNLLKMGHTVTVWNRTAEKCDLFIQEGARLGRTPAEVVSTCDITFACVSDPKAAKDLVLGPSGVLQGIRPGKCYVDMSTVDADTVTELAQVIVSRGGRFLEAPVSGNQQLSNDGMLVILAAGDRGLYEDCSSCFQAMGKTSFFLGEVGNAAKMMLIVNMVQGSFMATIAEGLTLAQVTGQSQQTLLDILNQGQLASIFLDQKCQNILQGNFKPDFYLKYIQKDLRLAIALGDAVNHPTPMAAAANEVYKRAKALDQSDNDMSAVYRAYIH
binds | binds | ATXN2L (protein, UniProt Q8WWM7 1-1075) MLKPQPLQQPSQPQQPPPTQQAVARRPPGGTSPPNGGLPGPLATSAAPPGPPAAASPCLGPVAAAGSGLRRGAEGILAPQPPPPQQHQERPGAAAIGSARGQSTGKGPPQSPVFEGVYNNSRMLHFLTAVVGSTCDVKVKNGTTYEGIFKTLSSKFELAVDAVHRKASEPAGGPRREDIVDTMVFKPSDVMLVHFRNVDFNYATKDKFTDSAIAMNSKVNGEHKEKVLQRWEGGDSNSDDYDLESDMSNGWDPNEMFKFNEENYGVKTTYDSSLSSYTVPLEKDNSEEFRQRELRAAQLAREIESSPQYRLRIAMENDDGRTEEEKHSAVQRQGSGRESPSLASREGKYIPLPQRVREGPRGGVRCSSSRGGRPGLSSLPPRGPHHLDNSSPGPGSEARGINGGPSRMSPKAQRPLRGAKTLSSPSNRPSGETSVPPPPAVGRMYPPRSPKSAAPAPISASCPEPPIGSAVPTSSASIPVTSSVSDPGVGSISPASPKISLAPTDVKELSTKEPGRTLEPQELARIAGKVPGLQNEQKRFQLEELRKFGAQFKLQPSSSPENSLDPFPPRILKEEPKGKEKEVDGLLTSEPMGSPVSSKTESVSDKEDKPPLAPSGGTEGPEQPPPPCPSQTGSPPVGLIKGEDKDEGPVAEQVKKSTLNPNAKEFNPTKPLLSVNKSTSTPTSPGPRTHSTPSIPVLTAGQSGLYSPQYISYIPQIHMGPAVQAPQMYPYPVSNSVPGQQGKYRGAKGSLPPQRSDQHQPASAPPMMQAAAAAGPPLVAATPYSSYIPYNPQQFPGQPAMMQPMAHYPSQPVFAPMLQSNPRMLTSGSHPQAIVSSSTPQYPSAEQPTPQALYATVHQSYPHHATQLHAHQPQPATTPTGSQPQSQHAAPSPVQHQAGQAPHLGSGQPQQNLYHPGALTGTPPSLPPGPSAQSPQSSFPQPAAVYAIHHQQLPHGFTNMAHVTQAHVQTGITAAPPPHPGAPHPPQVMLLHPPQSHGGPPQGAVPQSGVPALSASTPSPYPYIGHPQGEQPGQAPGFPGGADDRIREFSLAGGIWHGRAEGLQVGQDARVLGGE
binds | binds | HNRNPA0 (protein, UniProt Q13151 1-305) MENSQLCKLFIGGLNVQTSESGLRGHFEAFGTLTDCVVVVNPQTKRSRCFGFVTYSNVEEADAAMAASPHAVDGNTVELKRAVSREDSARPGAHAKVKKLFVGGLKGDVAEGDLIEHFSQFGTVEKAEIIADKQSGKKRGFGFVYFQNHDAADKAAVVKFHPIQGHRVEVKKAVPKEDIYSGGGGGGSRSSRGGRGGRGRGGGRDQNGLSKGGGGGYNSYGGYGGGGGGGYNAYGGGGGGSSYGGSDYGNGFGGFGSYSQHQSSYGPMKSGGGGGGGGSSWGGRSNSGPYRGGYGGGGGYGGSSF
binds | binds | DKC1 (protein, UniProt O60832 1-514) MADAEVIILPKKHKKKKERKSLPEEDVAEIQHAEEFLIKPESKVAKLDTSQWPLLLKNFDKLNVRTTHYTPLACGSNPLKREIGDYIRTGFINLDKPSNPSSHEVVAWIRRILRVEKTGHSGTLDPKVTGCLIVCIERATRLVKSQQSAGKEYVGIVRLHNAIEGGTQLSRALETLTGALFQRPPLIAAVKRQLRVRTIYESKMIEYDPERRLGIFWVSCEAGTYIRTLCVHLGLLLGVGGQMQELRRVRSGVMSEKDHMVTMHDVLDAQWLYDNHKDESYLRRVVYPLEKLLTSHKRLVMKDSAVNAICYGAKIMLPGVLRYEDGIEVNQEIVVITTKGEAICMAIALMTTAVISTCDHGIVAKIKRVIMERDTYPRKWGLGPKASQKKLMIKQGLLDKHGKPTDSTPATWKQEYVDYSESAKKEVVAEVVKAPQVVAEAAKTAKRKRESESESDETPPAAPQLIKKEKKKSKKDKKAKAGLESGAEPGDGDSDTTKKKKKKKKAKEVELVSE
binds | binds | UPF1 (protein, UniProt Q92900 1-1129) MSVEAYGPSSQTLTFLDTEEAELLGADTQGSEFEFTDFTLPSQTQTPPGGPGGPGGGGAGGPGGAGAGAAAGQLDAQVGPEGILQNGAVDDSVAKTSQLLAELNFEEDEEDTYYTKDLPIHACSYCGIHDPACVVYCNTSKKWFCNGRGNTSGSHIVNHLVRAKCKEVTLHKDGPLGETVLECYNCGCRNVFLLGFIPAKADSVVVLLCRQPCASQSSLKDINWDSSQWQPLIQDRCFLSWLVKIPSEQEQLRARQITAQQINKLEELWKENPSATLEDLEKPGVDEEPQHVLLRYEDAYQYQNIFGPLVKLEADYDKKLKESQTQDNITVRWDLGLNKKRIAYFTLPKTDSGNEDLVIIWLRDMRLMQGDEICLRYKGDLAPLWKGIGHVIKVPDNYGDEIAIELRSSVGAPVEVTHNFQVDFVWKSTSFDRMQSALKTFAVDETSVSGYIYHKLLGHEVEDVIIKCQLPKRFTAQGLPDLNHSQVYAVKTVLQRPLSLIQGPPGTGKTVTSATIVYHLARQGNGPVLVCAPSNIAVDQLTEKIHQTGLKVVRLCAKSREAIDSPVSFLALHNQIRNMDSMPELQKLQQLKDETGELSSADEKRYRALKRTAERELLMNADVICCTCVGAGDPRLAKMQFRSILIDESTQATEPECMVPVVLGAKQLILVGDHCQLGPVVMCKKAAKAGLSQSLFERLVVLGIRPIRLQVQYRMHPALSAFPSNIFYEGSLQNGVTAADRVKKGFDFQWPQPDKPMFFYVTQGQEEIASSGTSYLNRTEAANVEKITTKLLKAGAKPDQIGIITPYEGQRSYLVQYMQFSGSLHTKLYQEVEIASVDAFQGREKDFIILSCVRANEHQGIGFLNDPRRLNVALTRARYGVIIVGNPKALSKQPLWNHLLNYYKEQKVLVEGPLNNLRESLMQFSKPRKLVNTINPGARFMTTAMYDAREAIIPGSVYDRSSQGRPSSMYFQTHDQIGMISAGPSHVAAMNIPIPFNLVMPPMPPPGYFGQANGPAAGRGTPKGKTGRGGRQKNRFGLPGPSQTNLPNSQASQDVASQPFSQGALTQGYISMSQPSQMSQPGLSQPELSQDSYLGDEFKSQIDVALSQDSTYQGERAYQHGGVTGLSQY
binds | binds | SNW1 (protein, UniProt Q13573 1-536) MALTSFLPAPTQLSQDQLEAEEKARSQRSRQTSLVSSRREPPPYGYRKGWIPRLLEDFGDGGAFPEIHVAQYPLDMGRKKKMSNALAIQVDSEGKIKYDAIARQGQSKDKVIYSKYTDLVPKEVMNADDPDLQRPDEEAIKEITEKTRVALEKSVSQKVAAAMPVRAADKLAPAQYIRYTPSQQGVAFNSGAKQRVIRMVEMQKDPMEPPRFKINKKIPRGPPSPPAPVMHSPSRKMTVKEQQEWKIPPCISNWKNAKGYTIPLDKRLAADGRGLQTVHINENFAKLAEALYIADRKAREAVEMRAQVERKMAQKEKEKHEEKLREMAQKARERRAGIKTHVEKEDGEARERDEIRHDRRKERQHDRNLSRAAPDKRSKLQRNENRDISEVIALGVPNPRTSNEVQYDQRLFNQSKGMDSGFAGGEDEIYNVYDQAWRGGKDMAQSIYRPSKNLDKDMYGDDLEARIKTNRFVPDKEFSGSDRRQRGREGPVQFEEDPFGLDKFLEEAKQHGGSKRPSDSSRPKEHEHEGKKRRKE
